Test results published in publication doi:10.1101/2021.06.03.446896.
For part of these data: No signal at the amounts used counts as a negative. For part of these data: At least one verdict was read from the data and is not stated in words by the source. For part of these data: Protein sequences can lack the tags named with them. For part of these data: The comparison behind a weaker result is the experiment's own reference, which may not be listed here. For part of these data: The exact form of at least one protein or probe is not confirmed.

Protein sequences, listed by entry. Tags and fused reporters are not part of them. Lines headed by an entry give the natural chain unless they say otherwise; changes in a name come on top. Residues count along the entry.
UniProt O97159, 691-1271: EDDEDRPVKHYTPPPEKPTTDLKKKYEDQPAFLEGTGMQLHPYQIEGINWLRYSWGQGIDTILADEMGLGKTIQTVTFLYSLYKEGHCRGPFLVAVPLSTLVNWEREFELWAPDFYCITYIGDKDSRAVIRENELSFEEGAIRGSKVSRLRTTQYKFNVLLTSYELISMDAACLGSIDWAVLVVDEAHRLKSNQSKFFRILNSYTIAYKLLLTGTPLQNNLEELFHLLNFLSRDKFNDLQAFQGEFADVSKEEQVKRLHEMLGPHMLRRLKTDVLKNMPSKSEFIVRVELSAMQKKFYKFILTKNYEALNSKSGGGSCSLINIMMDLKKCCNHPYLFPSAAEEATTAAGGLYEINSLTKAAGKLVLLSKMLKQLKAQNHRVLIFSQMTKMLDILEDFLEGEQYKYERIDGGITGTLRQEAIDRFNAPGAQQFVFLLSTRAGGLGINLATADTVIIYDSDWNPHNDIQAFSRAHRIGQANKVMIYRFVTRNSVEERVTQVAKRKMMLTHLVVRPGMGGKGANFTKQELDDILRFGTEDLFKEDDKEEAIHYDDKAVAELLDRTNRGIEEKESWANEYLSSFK

What was measured:
dMi-2 WT [1] = molecular target: dMi-2 WT (UniProt O97159); test: EMSA; settings: Kd n.d., affinity too low; residues 1-1982
dMi-2 WT [2] = molecular target: dMi-2 WT (UniProt O97159); test: fluorescence polarization; settings: too weak for Kd; residues 1-1982
dMi-2 Δ376 del1-376 = dMi-2 Δ376 del1-376 (UniProt O97159); test: EMSA; settings: residues 377-1982
dMi-2 (1-376) = molecular target: T1, dMi-2 (1-376) (UniProt O97159); test: EMSA; settings: residues 1-376
T1 sequence (looked up): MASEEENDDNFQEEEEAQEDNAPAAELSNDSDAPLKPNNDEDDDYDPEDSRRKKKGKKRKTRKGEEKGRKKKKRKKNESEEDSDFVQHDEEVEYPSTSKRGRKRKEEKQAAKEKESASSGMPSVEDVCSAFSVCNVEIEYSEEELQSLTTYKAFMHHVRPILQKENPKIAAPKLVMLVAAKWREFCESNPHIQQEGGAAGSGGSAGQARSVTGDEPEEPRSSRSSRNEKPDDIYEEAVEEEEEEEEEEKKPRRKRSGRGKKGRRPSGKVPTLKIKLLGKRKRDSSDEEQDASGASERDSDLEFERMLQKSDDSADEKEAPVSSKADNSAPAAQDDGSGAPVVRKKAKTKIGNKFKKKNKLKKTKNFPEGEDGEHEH

dMi-2 (691-1271) = dMi-2 (691-1271) (UniProt O97159); test: EMSA; settings: no significant RNA binding; residues 691-1271
dMi-2 ΔC = dMi-2 ΔC (UniProt O97159); test: EMSA
dMi-2 ΔN = dMi-2 ΔN (UniProt O97159); test: EMSA
dMi-2 (377-690) = molecular target: T2, dMi-2 (377-690) (UniProt O97159); test: EMSA; settings: no significant RNA binding; residues 377-690
T2 sequence (looked up): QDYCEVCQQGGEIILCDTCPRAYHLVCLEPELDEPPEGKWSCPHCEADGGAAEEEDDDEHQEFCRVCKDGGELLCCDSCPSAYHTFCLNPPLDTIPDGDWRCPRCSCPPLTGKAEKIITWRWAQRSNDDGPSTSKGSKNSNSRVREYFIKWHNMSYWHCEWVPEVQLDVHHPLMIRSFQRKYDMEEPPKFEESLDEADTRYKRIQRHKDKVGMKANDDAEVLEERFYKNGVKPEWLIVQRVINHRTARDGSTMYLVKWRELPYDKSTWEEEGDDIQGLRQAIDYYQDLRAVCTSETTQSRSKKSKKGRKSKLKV

Sequence: AAAAAAAAAAAAAAAAAAAAAAAAAAAAAAAAAAAAAAAA [Poly(A) 40-mer]
- binding result (dMi-2 WT [1]): binds more weakly

Sequence: CACACACACACACACACACACACACACACACACACACACA [FAM-(CA)20 RNA]
- binding result (dMi-2 WT [2]): binds more weakly

Sequence: CCUACGGACUGGACAAGAACCUCAAGGGUGAGCGCAAUGU [Hsp70Aa #6 RNA]
- binding result (dMi-2 Δ376 del1-376): binds more weakly
- binding result (dMi-2 (1-376)): binds
- binding result (dMi-2 (691-1271)): no binding
- binding result (dMi-2 ΔC): binds
- binding result (dMi-2 ΔN): binds more weakly
- binding result (dMi-2 (377-690)): no binding

Sequence: UUUUUUUUUUUUUUUUUUUUUUUUUUUUUUUUUUUUUUUU [Poly(U) 40-mer]
- binding result (dMi-2 WT [1]): binds more weakly
